Experimental data published in article PMC8256601.
Results are given in words; binding and its absence hold for the method and conditions named. Binding seen in cells or lysates may run through a third protein. Some entries that bind do so weakly or less than the wild type.

The chains behind the UniProt entries cited, without tags or fusion partners. Residues count along the entry.
UniProt Q05941, residues 23-502: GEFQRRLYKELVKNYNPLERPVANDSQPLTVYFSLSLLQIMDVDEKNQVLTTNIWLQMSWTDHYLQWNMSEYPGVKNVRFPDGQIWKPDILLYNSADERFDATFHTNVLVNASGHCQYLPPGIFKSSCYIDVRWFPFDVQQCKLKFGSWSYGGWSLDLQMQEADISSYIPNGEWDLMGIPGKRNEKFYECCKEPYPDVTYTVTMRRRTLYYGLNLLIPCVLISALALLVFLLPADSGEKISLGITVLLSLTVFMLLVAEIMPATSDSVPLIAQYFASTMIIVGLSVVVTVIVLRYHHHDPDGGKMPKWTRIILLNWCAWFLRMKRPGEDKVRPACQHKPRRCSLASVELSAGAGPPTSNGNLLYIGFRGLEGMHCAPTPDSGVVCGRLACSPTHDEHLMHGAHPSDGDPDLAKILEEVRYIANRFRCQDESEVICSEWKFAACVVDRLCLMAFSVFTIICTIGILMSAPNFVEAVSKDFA

Assays:
[1] = biological target: α7 nicotinic acetylcholine receptor (rat (endogenous in rat brain)) (UniProt Q05941); experiment: co-IP; anti-α7nAChR antibody with protein A/G plus agarose overnight at 4 °C, blot for NR2A; striatal lysate of rats injected i.c.v. with TAT or TAT-α7-peptide; lysis buffer 50 mM Tris, 150 mM NaCl, 2 mM EDTA, 1% NP-40, 0.5% sodium deoxycholate, pH 7.4; control IgG
[2] = biological target: α7 nicotinic acetylcholine receptor (rat (endogenous in rat brain)) (UniProt Q05941); experiment: co-IP; anti-α7nAChR antibody with protein A/G plus agarose overnight at 4 °C, blot for NR2A; hippocampal lysate of rats injected i.c.v. with TAT or TAT-α7-peptide; lysis buffer 50 mM Tris, 150 mM NaCl, 2 mM EDTA, 1% NP-40, 0.5% sodium deoxycholate, pH 7.4; control IgG

binding [1]: binds
binding [2]: binds
Substance: NR2A subunit of the NMDA receptor (from UniProt Q00959 23-1464)
